# Measured values taken from the supplement of paper PMC10032668.
# By UniProt entry, the sequences of proteins in these tests, tags left out.
# CALR, P27797, UniProt P27797, whole entry: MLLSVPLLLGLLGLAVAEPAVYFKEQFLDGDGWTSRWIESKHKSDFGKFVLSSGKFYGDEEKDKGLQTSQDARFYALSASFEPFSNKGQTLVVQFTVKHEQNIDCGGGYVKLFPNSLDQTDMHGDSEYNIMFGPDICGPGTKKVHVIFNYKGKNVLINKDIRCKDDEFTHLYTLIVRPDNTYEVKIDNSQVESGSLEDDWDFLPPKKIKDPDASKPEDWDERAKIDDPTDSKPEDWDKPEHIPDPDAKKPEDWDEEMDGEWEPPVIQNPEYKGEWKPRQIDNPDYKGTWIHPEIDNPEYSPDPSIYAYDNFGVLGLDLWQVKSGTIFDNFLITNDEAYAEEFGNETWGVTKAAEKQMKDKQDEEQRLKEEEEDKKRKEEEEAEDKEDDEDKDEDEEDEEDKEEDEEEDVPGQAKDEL
# Some of the results follow. Only hits are listed; about a third recur on repeated control peptides.
# Experiments:
# Assay in all cases: PRISMA enrichment of interactor (LFQ) in peptide spot vs all other peptide spots (log2 fold change); higher = stronger / more specific binding of the interactor to the peptide
# BAIAP2, Q9UQB8 = target: BAIAP2, Q9UQB8
# Method: (§1)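 PRISMA: 15-aa overlapping tiles (offset 8 aa) of 60 microproteins, plus SOS1/GLUT1 control peptides, were spot-synthesized on cellulose membranes in triplicate. Membranes were incubated with benzonase-treated HEK293T lysate, and bound proteins were identified by LC-MS/MS with LFQ. Enrichment is the log2 fold change of each protein in one spot versus all other spots. Only interactors passing the significance cutoff are listed.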
# DDX47, Q9H0S4 = target: DDX47, Q9H0S4
# Method: as §1
# HMGA1, P17096 = target: HMGA1, P17096
# Method: as §1
# IGHMBP2, P38935 = target: IGHMBP2, P38935
# Method: as §1
# ITIH2, P19823 = target: ITIH2, P19823
# Method: as §1
# KRT6B, P04259 = target: KRT6B, P04259
# Method: as §1
# LRRFIP1, Q32MZ4 = target: LRRFIP1, Q32MZ4
# Method: as §1
# MAP7, Q14244 = target: MAP7, Q14244
# Method: as §1
# MRPL1, Q9BYD6 = target: MRPL1, Q9BYD6
# Method: as §1
# RANBP1, P43487 = target: RANBP1, P43487
# Method: as §1
# BAG2, O95816 = target: BAG2, O95816
# Method: as §1
# CALR, P27797 = target: CALR, P27797
# Method: as §1
# COMMD3-BMI1 = target: COMMD3-BMI1
# Method: as §1
# DDX20, Q9UHI6 = target: DDX20, Q9UHI6
# Method: as §1
# DDX54, Q8TDD1 = target: DDX54, Q8TDD1
# Method: as §1
# DHX40, Q8IX18 = target: DHX40, Q8IX18
# Method: as §1
# GFPT1, Q06210 = target: GFPT1, Q06210
# Method: as §1
# INTS7, Q9NVH2 = target: INTS7, Q9NVH2
# Method: as §1
# P4HB, P07237 = target: P4HB, P07237
# Method: as §1
# PIN4, Q9Y237 = target: PIN4, Q9Y237
# Method: as §1
# SAP18, O00422 = target: SAP18, O00422
# Method: as §1
# SAP30BP, Q9UHR5 = target: SAP30BP, Q9UHR5
# Method: as §1
# SNRNP40, Q96DI7 = target: SNRNP40, Q96DI7
# Method: as §1
# CDC73, Q6P1J9 = target: CDC73, Q6P1J9
# Method: as §1
# CLCC1, Q96S66 = target: CLCC1, Q96S66
# Method: as §1
# DNAJB11, Q9UBS4 = target: DNAJB11, Q9UBS4
# Method: as §1
# FANCI, Q9NVI1 = target: FANCI, Q9NVI1
# Method: as §1
# KHSRP, Q92945 = target: KHSRP, Q92945
# Method: as §1
# MRPS9, P82933 = target: MRPS9, P82933
# Method: as §1
# MTDH, Q86UE4 = target: MTDH, Q86UE4
# Method: as §1
# NUP85, Q9BW27 = target: NUP85, Q9BW27
# Method: as §1
# PSMC2, P35998 = target: PSMC2, P35998
# Method: as §1
# RCN2, Q14257 = target: RCN2, Q14257
# Method: as §1
# RPS17, P08708 = target: RPS17, P08708
# Method: as §1
# SEMG2, Q02383 = target: SEMG2, Q02383
# Method: as §1
# SMC1A, Q14683 = target: SMC1A, Q14683
# Method: as §1
# SREK1, Q8WXA9 = target: SREK1, Q8WXA9
# Method: as §1
# SRI, P30626 = target: SRI, P30626
# Method: as §1
# TRIM26, Q12899 = target: TRIM26, Q12899
# Method: as §1
# TXNDC12, O95881 = target: TXNDC12, O95881
# Method: as §1
# URB2, Q14146 = target: URB2, Q14146
# Method: as §1
# WDCP, Q9H6R7 = target: WDCP, Q9H6R7
# Method: as §1
# XRCC5, P13010 = target: XRCC5, P13010
# Method: as §1
binder,measurement,setting,value
PRCRGGPGAAAVWAR [RAB12],PRISMA enrichment of interactor (log2),"BAIAP2, Q9UQB8",5.09
same,PRISMA enrichment of interactor (log2),"DDX47, Q9H0S4",5.9
same,PRISMA enrichment of interactor (log2),"HMGA1, P17096",4.37
same,PRISMA enrichment of interactor (log2),"IGHMBP2, P38935",8.84
same,PRISMA enrichment of interactor (log2),"ITIH2, P19823",4.3
same,PRISMA enrichment of interactor (log2),"KRT6B, P04259",5.16
same,PRISMA enrichment of interactor (log2),"LRRFIP1, Q32MZ4",8.08
same,PRISMA enrichment of interactor (log2),"MAP7, Q14244",4.07
same,PRISMA enrichment of interactor (log2),"MRPL1, Q9BYD6",4.8
same,PRISMA enrichment of interactor (log2),"RANBP1, P43487",4.79
SVYRPCTSPGRFFHN [EBAG9],PRISMA enrichment of interactor (log2),"BAG2, O95816",6.32
same,PRISMA enrichment of interactor (log2),"CALR, P27797",5.98
same,PRISMA enrichment of interactor (log2),COMMD3-BMI1,4.08
same,PRISMA enrichment of interactor (log2),"DDX20, Q9UHI6",5.71
same,PRISMA enrichment of interactor (log2),"DDX54, Q8TDD1",5.55
same,PRISMA enrichment of interactor (log2),"DHX40, Q8IX18",5.36
same,PRISMA enrichment of interactor (log2),"GFPT1, Q06210",4.7
same,PRISMA enrichment of interactor (log2),"INTS7, Q9NVH2",8.69
same,PRISMA enrichment of interactor (log2),"P4HB, P07237",4.9
same,PRISMA enrichment of interactor (log2),"PIN4, Q9Y237",4.38
same,PRISMA enrichment of interactor (log2),"SAP18, O00422",4.92
same,PRISMA enrichment of interactor (log2),"SAP30BP, Q9UHR5",5.38
same,PRISMA enrichment of interactor (log2),"SNRNP40, Q96DI7",5.49
DSYSLDVHGGRRTAA [PVT1],PRISMA enrichment of interactor (log2),"BAG2, O95816",6
same,PRISMA enrichment of interactor (log2),"CDC73, Q6P1J9",5.79
same,PRISMA enrichment of interactor (log2),"CLCC1, Q96S66",4.17
same,PRISMA enrichment of interactor (log2),"DNAJB11, Q9UBS4",5.33
same,PRISMA enrichment of interactor (log2),"FANCI, Q9NVI1",6.27
same,PRISMA enrichment of interactor (log2),"HMGA1, P17096",7.09
same,PRISMA enrichment of interactor (log2),"KHSRP, Q92945",5.87
same,PRISMA enrichment of interactor (log2),"MRPS9, P82933",5.87
same,PRISMA enrichment of interactor (log2),"MTDH, Q86UE4",5.84
same,PRISMA enrichment of interactor (log2),"NUP85, Q9BW27",8.01
same,PRISMA enrichment of interactor (log2),"PSMC2, P35998",6.89
same,PRISMA enrichment of interactor (log2),"RCN2, Q14257",6.64
same,PRISMA enrichment of interactor (log2),"RPS17, P08708",5.5
same,PRISMA enrichment of interactor (log2),"SEMG2, Q02383",6.57
same,PRISMA enrichment of interactor (log2),"SMC1A, Q14683",5.81
same,PRISMA enrichment of interactor (log2),"SREK1, Q8WXA9",5.15
same,PRISMA enrichment of interactor (log2),"SRI, P30626",5.28
same,PRISMA enrichment of interactor (log2),"TRIM26, Q12899",4.9
same,PRISMA enrichment of interactor (log2),"TXNDC12, O95881",5.55
same,PRISMA enrichment of interactor (log2),"URB2, Q14146",6.86
same,PRISMA enrichment of interactor (log2),"WDCP, Q9H6R7",5.75
same,PRISMA enrichment of interactor (log2),"XRCC5, P13010",5.41

# Three entries drawn at random from those above:
binder,measurement,setting,value
DSYSLDVHGGRRTAA [PVT1],PRISMA enrichment of interactor (log2),"RPS17, P08708",5.5
SVYRPCTSPGRFFHN [EBAG9],PRISMA enrichment of interactor (log2),"PIN4, Q9Y237",4.38
DSYSLDVHGGRRTAA [PVT1],PRISMA enrichment of interactor (log2),"SRI, P30626",5.28
